Measurements reported in PubChem BioAssay AID1508597 (Cure First, 2020)
Shown is an unselected part of the about 2,100 reagents, in one setting of the screen. 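Calls flag viability under 80% in either arm, not effects specific to rucaparib; the reference for percent is not stated.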 Some reagents were tested in more than one well and are listed for each. Not stated in the record: the 100% reference.

Purpose: 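Genes whose silencing sensitises or protects ovarian cancer cells against rucaparib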 (primary screen)
System: human ovarian carcinoma lines grown from tumours: OCI-P5x (papillary serous) and OCI-C5x (clear cell)
Knock-down reagent: siRNA pool against human genes, 1.25 pmol siRNA per well
Time to read-out: 72 h or 96 h, depending on the cell culture
Treatment: rucaparib 20 µM (about IC30) or vehicle, present until read-out
Rucaparib or vehicle: Vehicle
Cell line: OCI-P5x (serous)
Detection: 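Luminescent ATP-based viability assay read 72 or 96 h after transfection, depending on culture, given as normalised percent viability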
Scale: viability, normalised: higher = more viable cells remaining
Hit rule: 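Active when normalised viability falls below 80 percent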
Calls: active = viability under 80%; inactive = viability 80% or more

gene knocked down | technical replicate | viability, normalised (%) | Call
DPH7 (diphthamide biosynthesis 7) | 1 | 70.3 | active
DPH7 (diphthamide biosynthesis 7) | 2 | 72 | active
DPH7 (diphthamide biosynthesis 7) | 3 | 69.3 | active
UCHL5 (ubiquitin C-terminal hydrolase L5) | 1 | 84.6 | inactive
UCHL5 (ubiquitin C-terminal hydrolase L5) | 2 | 78.5 | active
UCHL5 (ubiquitin C-terminal hydrolase L5) | 3 | 57.8 | active
DHX32 (DEAH-box helicase 32 (putative)) | 1 | 75.5 | active
DHX32 (DEAH-box helicase 32 (putative)) | 2 | 83.8 | inactive
DHX32 (DEAH-box helicase 32 (putative)) | 3 | 80.6 | inactive
OXSR1 (oxidative stress responsive kinase 1) | 1 | 75.4 | active
OXSR1 (oxidative stress responsive kinase 1) | 2 | 74.9 | active
OXSR1 (oxidative stress responsive kinase 1) | 3 | 67.4 | active
UIMC1 (ubiquitin interaction motif containing 1) | 1 | 72.1 | active
UIMC1 (ubiquitin interaction motif containing 1) | 1 | 80.6 | inactive
UIMC1 (ubiquitin interaction motif containing 1) | 2 | 65.6 | active
UIMC1 (ubiquitin interaction motif containing 1) | 2 | 87.7 | inactive
UIMC1 (ubiquitin interaction motif containing 1) | 3 | 79.6 | active
UIMC1 (ubiquitin interaction motif containing 1) | 3 | 59.3 | active
GEN1 (GEN1 structure-specific endonuclease) | 1 | 151 | inactive
GEN1 (GEN1 structure-specific endonuclease) | 2 | 114 | inactive
GEN1 (GEN1 structure-specific endonuclease) | 3 | 134 | inactive
S100A6 (S100 calcium binding protein A6) | 1 | 51 | active
S100A6 (S100 calcium binding protein A6) | 2 | 59.9 | active
S100A6 (S100 calcium binding protein A6) | 3 | 66.5 | active
UTY | 1 | 92.7 | inactive
UTY | 2 | 115 | inactive
UTY | 3 | 107 | inactive

Next part, starting with the last 5 of the part before.
gene knocked down | technical replicate | viability, normalised (%) | Call
S100A6 (S100 calcium binding protein A6) | 2 | 59.9 | active
S100A6 (S100 calcium binding protein A6) | 3 | 66.5 | active
UTY | 1 | 92.7 | inactive
UTY | 2 | 115 | inactive
UTY | 3 | 107 | inactive
GTF2H5 (general transcription factor IIH subunit 5) | 1 | 71.3 | active
GTF2H5 (general transcription factor IIH subunit 5) | 2 | 69.3 | active
GTF2H5 (general transcription factor IIH subunit 5) | 3 | 76 | active
SMN2 (survival of motor neuron 2, centromeric) | 1 | 44 | active
SMN2 (survival of motor neuron 2, centromeric) | 2 | 45.9 | active
SMN2 (survival of motor neuron 2, centromeric) | 3 | 101 | inactive
PTTG1 | 1 | 81.7 | inactive
PTTG1 | 1 | 69.2 | active
PTTG1 | 2 | 93.2 | inactive
PTTG1 | 2 | 52.6 | active
PTTG1 | 3 | 62.4 | active
PTTG1 | 3 | 99 | inactive
BRD7P3 (bromodomain containing 7 pseudogene 3) | 1 | 82.2 | inactive
BRD7P3 (bromodomain containing 7 pseudogene 3) | 2 | 93.4 | inactive
BRD7P3 (bromodomain containing 7 pseudogene 3) | 3 | 79.6 | active
CAMKK2 (calcium/calmodulin dependent protein kinase kinase 2) | 1 | 85.1 | inactive
CAMKK2 (calcium/calmodulin dependent protein kinase kinase 2) | 2 | 74.9 | active
CAMKK2 (calcium/calmodulin dependent protein kinase kinase 2) | 3 | 72.3 | active
SMC3 (structural maintenance of chromosomes 3) | 1 | 54.7 | active
SMC3 (structural maintenance of chromosomes 3) | 2 | 62.5 | active
SMC3 (structural maintenance of chromosomes 3) | 3 | 74.1 | active
RBM14 (RNA binding motif protein 14) | 1 | 80 | active
RBM14 (RNA binding motif protein 14) | 2 | 73.9 | active
RBM14 (RNA binding motif protein 14) | 3 | 60.8 | active
NADK (NAD kinase) | 1 | 68.2 | active
NADK (NAD kinase) | 2 | 48.7 | active
NADK (NAD kinase) | 3 | 67 | active
UCK1 (uridine-cytidine kinase 1) | 1 | 70.7 | active
UCK1 (uridine-cytidine kinase 1) | 2 | 58.7 | active
UCK1 (uridine-cytidine kinase 1) | 3 | 70.2 | active
